± gives the standard deviation of the averaged measurements. The list shows a part of the results.

Sequences of proteins named here, by UniProt entry; tags and fusion partners are left off. A change or cut given only in a name is not applied to a line headed by its entry.
UniProt P54687: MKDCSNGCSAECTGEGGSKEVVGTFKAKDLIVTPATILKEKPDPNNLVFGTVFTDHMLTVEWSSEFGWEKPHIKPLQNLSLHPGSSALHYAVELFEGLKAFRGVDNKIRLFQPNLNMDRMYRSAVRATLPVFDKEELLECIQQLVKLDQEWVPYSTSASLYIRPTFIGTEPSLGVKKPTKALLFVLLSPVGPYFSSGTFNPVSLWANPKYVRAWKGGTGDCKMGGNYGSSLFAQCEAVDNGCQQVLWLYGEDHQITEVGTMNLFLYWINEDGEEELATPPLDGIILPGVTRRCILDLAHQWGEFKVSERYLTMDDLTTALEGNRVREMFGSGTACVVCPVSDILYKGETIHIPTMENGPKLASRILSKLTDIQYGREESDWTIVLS
UniProt P51948: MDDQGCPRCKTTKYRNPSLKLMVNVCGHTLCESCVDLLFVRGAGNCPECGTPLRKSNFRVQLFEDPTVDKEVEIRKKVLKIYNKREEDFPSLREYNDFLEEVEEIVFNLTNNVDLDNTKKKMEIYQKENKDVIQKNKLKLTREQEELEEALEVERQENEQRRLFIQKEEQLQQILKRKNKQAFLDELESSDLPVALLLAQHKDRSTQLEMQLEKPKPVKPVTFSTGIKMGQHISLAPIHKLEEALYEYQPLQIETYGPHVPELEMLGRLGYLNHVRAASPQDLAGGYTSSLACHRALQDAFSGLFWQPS
UniProt P62318, whole entry: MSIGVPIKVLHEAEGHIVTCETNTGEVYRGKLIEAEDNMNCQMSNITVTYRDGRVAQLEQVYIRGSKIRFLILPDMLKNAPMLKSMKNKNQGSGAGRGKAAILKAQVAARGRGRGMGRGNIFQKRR
UniProt P51572: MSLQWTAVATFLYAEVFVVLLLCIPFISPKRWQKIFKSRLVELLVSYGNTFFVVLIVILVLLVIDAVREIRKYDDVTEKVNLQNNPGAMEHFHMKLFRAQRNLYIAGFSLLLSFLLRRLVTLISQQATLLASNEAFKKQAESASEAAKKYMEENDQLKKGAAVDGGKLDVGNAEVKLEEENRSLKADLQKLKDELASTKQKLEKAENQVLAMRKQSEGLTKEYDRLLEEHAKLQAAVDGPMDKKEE
UniProt P62072: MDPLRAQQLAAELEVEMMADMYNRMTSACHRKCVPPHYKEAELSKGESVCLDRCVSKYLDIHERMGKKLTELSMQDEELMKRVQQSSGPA
UniProt P50502: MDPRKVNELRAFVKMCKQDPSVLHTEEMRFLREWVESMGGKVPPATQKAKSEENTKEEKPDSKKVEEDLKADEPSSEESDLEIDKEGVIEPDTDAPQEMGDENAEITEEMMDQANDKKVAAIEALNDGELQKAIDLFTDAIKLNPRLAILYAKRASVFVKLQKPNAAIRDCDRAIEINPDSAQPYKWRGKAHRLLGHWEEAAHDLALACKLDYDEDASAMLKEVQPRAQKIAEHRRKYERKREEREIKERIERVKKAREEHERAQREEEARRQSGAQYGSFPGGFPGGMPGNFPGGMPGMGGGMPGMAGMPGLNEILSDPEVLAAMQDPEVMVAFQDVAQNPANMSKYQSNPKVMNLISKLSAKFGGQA
UniProt P83436: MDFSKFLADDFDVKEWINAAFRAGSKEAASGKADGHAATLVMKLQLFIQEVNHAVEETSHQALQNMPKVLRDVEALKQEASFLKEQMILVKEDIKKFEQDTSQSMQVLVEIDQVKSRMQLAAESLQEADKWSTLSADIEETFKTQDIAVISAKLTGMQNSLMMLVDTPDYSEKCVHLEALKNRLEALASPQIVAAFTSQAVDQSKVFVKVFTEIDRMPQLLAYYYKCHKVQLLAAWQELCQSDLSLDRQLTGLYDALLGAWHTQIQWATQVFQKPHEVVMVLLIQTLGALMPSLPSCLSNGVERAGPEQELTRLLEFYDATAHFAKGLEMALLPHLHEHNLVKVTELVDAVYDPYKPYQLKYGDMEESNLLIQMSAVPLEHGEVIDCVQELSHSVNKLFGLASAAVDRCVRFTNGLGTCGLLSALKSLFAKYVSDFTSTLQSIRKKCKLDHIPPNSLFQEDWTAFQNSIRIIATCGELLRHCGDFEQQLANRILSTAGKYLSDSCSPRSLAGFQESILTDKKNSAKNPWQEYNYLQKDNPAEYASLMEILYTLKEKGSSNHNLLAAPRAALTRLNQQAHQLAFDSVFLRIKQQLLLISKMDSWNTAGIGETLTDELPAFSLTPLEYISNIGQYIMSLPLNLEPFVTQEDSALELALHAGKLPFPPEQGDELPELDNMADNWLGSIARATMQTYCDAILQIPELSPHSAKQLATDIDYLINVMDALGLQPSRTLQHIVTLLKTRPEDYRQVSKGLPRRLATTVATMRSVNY
UniProt P78417: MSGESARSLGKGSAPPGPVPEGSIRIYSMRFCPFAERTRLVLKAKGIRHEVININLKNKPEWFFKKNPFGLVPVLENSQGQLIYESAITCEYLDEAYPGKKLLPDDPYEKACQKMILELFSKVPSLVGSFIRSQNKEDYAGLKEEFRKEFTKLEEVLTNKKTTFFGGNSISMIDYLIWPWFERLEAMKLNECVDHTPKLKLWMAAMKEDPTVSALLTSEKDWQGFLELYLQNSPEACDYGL
UniProt P60174, whole entry: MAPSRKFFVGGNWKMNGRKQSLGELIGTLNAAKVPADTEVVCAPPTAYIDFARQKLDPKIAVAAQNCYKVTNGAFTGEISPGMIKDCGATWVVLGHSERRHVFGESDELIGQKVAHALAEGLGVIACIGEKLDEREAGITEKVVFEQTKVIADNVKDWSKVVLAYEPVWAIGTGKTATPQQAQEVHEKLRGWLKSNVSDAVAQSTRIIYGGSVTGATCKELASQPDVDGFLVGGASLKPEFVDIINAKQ

Compound in the assay: Nc1nc2c(ncn2[C@@H]2O[C@H](COP(=O)(O)OP(=O)(O)OP(=O)(O)O)[C@@H](O)[C@H]2O)c(=O)[nH]1 [guanosine triphosphate]
The assay is described as follows: NP40-soluble protein abundance relative to vehicle (solubility fold change) (ratio); higher = more soluble protein in presence of GTP. To be noted: concentration: 10mM. An outline of the steps: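 Across three independent experiments, values are fold changes against the detergent-processed vehicle for each replicate, based on vsn-normalised intensities. The samples were Jurkat crude lysate treated with eight concentrations (0.1 to 10 mM) for 10 min at room temperature and then 3 min at 37 °C. Lysate was solubilised with 0.8% NP40 and benzonase, ultracentrifuged, and the supernatant analysed by TMT-labelled LC-MS/MS.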
On to UniProt P54687 and related entries, for which the NP40-soluble protein abundance worked out at 0.888 ± 0.069. The result for UniProt P51948 and related entries reads 1.03 ± 0.062. The result for UniProt P62318 and related entries reads 1.39 ± 0.11; that for UniProt P51572 and related entries, 1.16 ± 0.066; that for UniProt P61221, 0.895 ± 0.1.

In the case of UniProt P62072, the NP40-soluble protein abundance is 1.16 ± 0.037. The result for ST13 (UniProt P50502) reads 0.966 ± 0.013; that for COG7 (UniProt P83436), 1.02 ± 0.07; that for GSTO1 (UniProt P78417), 0.817 ± 0.073. The same measure for UniProt P60174 and related entries: 0.835 ± 0.13.

Source of the values: the supplement of paper PMC6411743.
